Test results from article PMC6158461.

By UniProt entry, the sequences of proteins in these tests, tags left out. Where a name states a change or a piece, a line headed by the entry shows the natural chain unless it says otherwise.
UniProt Q9HYR1: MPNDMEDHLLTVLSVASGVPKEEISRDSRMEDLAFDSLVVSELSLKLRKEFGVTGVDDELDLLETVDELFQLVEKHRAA
UniProt O54439: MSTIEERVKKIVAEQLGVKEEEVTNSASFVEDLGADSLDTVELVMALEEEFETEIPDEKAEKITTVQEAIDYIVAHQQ

T1: Acp1 with C-terminal SPA tag (strain CW22) (P. aeruginosa) (UniProt O52658)
T1 sequence: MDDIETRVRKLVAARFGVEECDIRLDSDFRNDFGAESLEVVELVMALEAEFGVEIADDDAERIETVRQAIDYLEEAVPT


What was measured:
Test in all cases: affinity purification with mass spectrometry; tandem (sequential peptide) affinity purification of chromosomally SPA-tagged ACPs from stationary-phase PAO1 lysates: anti-FLAG M2 magnetic beads, 0.1% Triton X-100, TEV cleavage, calmodulin Sepharose, 4°C; untagged PAO1 as control; only proteins identified in both of two experiments reported
[1] = target: Acp3 with C-terminal SPA tag (strain CW21) (P. aeruginosa) (UniProt Q9HYR1)
[2] = target: T1, Acp1 with C-terminal SPA tag (strain CW22) (P. aeruginosa)
[3] = target: AcpP with C-terminal SPA tag (strain CW20) (P. aeruginosa) (UniProt O54439)

Binder	binding [1]	binding [2]	binding [3]
FabG, 3-oxo-acyl-ACP reductase (enzyme, UniProt O54438 1-247) MSLQGKVALVTGASRGIGQAIALELGRLGAVVIGTATSASGAEKIAETLKANGVEGAGLVLDVSSDESVAATLEHIQQHLGQPLIVVNNAGITRDNLLVRMKDDEWFDVVNTNLNSLYRLSKAVLRGMTKARWGRIINIGSVVGAMGNAGQTNYAAAKAGLEGFTRALAREVGSRAITVNAVAPGFIDTDMTRELPEAQREALLGQIPLGRLGQAEEIAKVVGFLASDGAAYVTGATVPVNGGMYMS	binds	binds	binds
GlmU, bifunctional enzyme of LPS/peptidoglycan synthesis (enzyme, UniProt Q9HT22 1-454) MSLEIVILAAGQGTRMRSALPKVLHPIAGKPMLGHVIDCARQLQPERIHVVIGHGADLVRERMAADDLNFVLQAEQLGTGHAVAQALPFLSADQVLILYGDVPLIQLDTLQRLLAQVTPDQLSLLTVDMLDPTGYGRIVRDDQGAVQAIVEHKDATPAQRQIGEINTGILAVPGKRLADWLGRLSNDNAQGEYYLTDVIAMAVGDGLVVASAQPLDAMEVQGVNDRMQQAQLERHYQRLRAEELMRQGVTLLDPQRLDVRGEISVGRDVLIDVNVVLEGRVVIEDDVRIGPNCVIRDSVLRRGAVIKANSHLEGAELGEGSDAGPFARLRPGSVLGARAHVGNFVELKNARLGEGSKAGHLSYLGDAELGANCNIGAGTITCNYDGANKFRTELGDDVFIGSNNSLVAPLKIGDGATTAAGSTITHEVPAKNLAFGRARQKNLENWKRPEKIKK	binds	–	binds
GlpR, glycerol-3-phosphate regulon repressor (protein, UniProt Q51391 1-251) MNLPPRQQSIIEEVRERGYLSIEEMAQMFAVTPQTIRRDINQLAEQGLLRRYHGGAAYDSSIENTAYTMRADQMRDEKQRIAEAVASLVPDNASLFINIGTTTEAIARALLNHRNLKIITNNLHVAATLSAKEDFEVLVAGGTVRSDGGIVGQAAVDFIQQFRVDFALVGISGIDEDGSLLDFDYQEVRVSQAIIDNARQVFLAADSSKFGRNAVVRLGPISLVNRVISDSPPPAAIARLMAQHKVHLDLV	–	binds	–

Next, values leading:

binding [1]	binding [2]	binding [3]	Binder
binds	–	–	PqsD, PQS biosynthetic protein (enzyme, UniProt P20582 1-337) MGNPILAGLGFSLPKRQVSNHDLVGRINTSDEFIVERTGVRTRYHVEPEQAVSALMVPAARQAIEAAGLLPEDIDLLLVNTLSPDHHDPSQACLIQPLLGLRHIPVLDIRAQCSGLLYGLQMARGQILAGLARHVLVVCGEVLSKRMDCSDRGRNLSILLGDGAGAVVVSAGESLEDGLLDLRLGADGNYFDLLMTAAPGSASPTFLDENVLREGGGEFLMRGRPMFEHASQTLVRIAGEMLAAHELTLDDIDHVICHQPNLRILDAVQEQLGIPQHKFAVTVDRLGNMASASTPVTLAMFWPDIQPGQRVLVLTYGSGATWGAALYRKPEEVNRPC
binds	–	–	Pnp, polyribonucleotide nucleotidyltransferase (enzyme, UniProt Q9HV59 1-701) MNPVTKQFQFGQSTVTLETGRIARQATGAVLVTMDDVSVLVTVVGAKSPAEGRDFFPLSVHYQEKTYAAGRIPGGFFKREGRPSEKETLTSRLIDRPIRPLFPEGFMNEVQVVCTVVSTNKKSDPDIAAMIGTSAALAISGIPFAGPIGAARVGFHPEIGYILNPTYEQLQSSSLDMVVAGTEDAVLMVESEADELTEDQMLGAVLFAHDEFQAVIRAVKELAAEAGKPAWDWKAPAENTVLVNAIKAELGEAISQAYTITIKQDRYNRLGELRDQAVALFAGEEEGKFPASEVKDVFGLLEYRTVRENIVNGKPRIDGRDTRTVRPLRIEVGVLGKTHGSALFTRGETQALVVATLGTARDAQLLDTLEGERKDAFMLHYNFPPFSVGECGRMGSPGRREIGHGRLARRGVAAMLPTQDEFPYTIRVVSEITESNGSSSMASVCGASLALMDAGVPVKAPVAGIAMGLVKEGEKFAVLTDILGDEDHLGDMDFKVAGTDKGVTALQMDIKINGITEEIMEIALGQALEARLNILGQMNQVIAKPRAELSENAPTMLQMKIDSDKIRDVIGKGGATIRGICEETKASIDIEDDGSVKIYGETKEAAEAAKLRVLAITAEAEIGKIYVGKVERIVDFGAFVNILPGKDGLVHISQISDKRIDKVTDVLQEGQEVKVLVLDVDNRGRIKLSIKDVAAAEASGV
–	binds	–	PepA, cytosol aminopeptidase (enzyme, UniProt O68822 1-495) MEFLVKSVRPETLKTATLVLAVGEGRKLGASAKAVDDATGGAISAVLKRGDLAGKVGQTLLLQSLPNLKAERVLLVGAGKERELGDRQYRKLASAVLSTLKGLAGADAALALGDLAVKGRDAHAKARLLVETLADGLYVFDRYKSQKAEPLKLKKLTLLADKADSAAVEQGSKEAQAIANGMALTRDLGNLPPNVCHPTFLGEQAKGLAKEFKGLKVEVLDEKKLRELGMGSFLAVAQGSDQPPRLIVLQYNGAKKDQAPHVLVGKGITFDTGGISLKPGLGMDEMKFDMCGAASVFGTFRAVLELQLPINLVGLLACAENMPSGGATRPGDIVTTMSGQTVEILNTDAEGRLVLCDALTYAERFKPQSVIDIATLTGACIVALGSNTSGLMGNNEALVRQLLKAGEFADDRAWQLPLFDEYQEQLDSPFADIANIGGPKAGTITAGCFLSRFAKKYHWAHLDIAGTAWISGGKDKGATGRPVPLLTQYLLERAK

These are yes or no findings as the source states them, for the method shown. Binding seen in cells or lysates may run through a third protein. Here binding means that the protein was enriched with, or labelled near, the bait; the list need not be complete. For part of these data: Sequences can lack the tags named with a protein.
